Experimental data: PubChem BioAssay AID504804 (Drosophila RNAi Screening Center, 2011)

Purpose: 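Knock-downs shielding fly cells from apoptosis caused by DNA damage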 (primary screen)
Cell system: Drosophila Kc cells
Knock-down reagent: long dsRNA against Drosophila genes, 0.5 µg dsRNA per well
Duration: 96 h (48 h knock-down, then 48 h drug)
Treatment: doxorubicin 5 µg/ml for 48 h, added 48 h after dsRNA
Measurement: 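Viability measured as cellular ATP by luminescence after 48 h knock-down then 48 h doxorubicin at 5 µg/ml; unnormalised plate counts for each replicate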
Scale: raw ATP luminescence: higher = more viable cells, protection from doxorubicin
Rule for the call: 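z-score of 2 or more over plate mean in both duplicates, retained only when retests and separate dsRNAs confirm the protection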
The screen tested about 19,000 reagents; shown is an unselected part of those that have a named target and a result. In the full data, 47 (0.25%) are marked active. 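Signals are raw, not normalised; exact z-scores behind calls not deposited; actives needed confirmation, so some wells reaching 2 SD are inactive.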 A plus sign joins genes that one reagent is predicted to hit.

target gene	dsRNA	raw ATP luminescence, replicate 1	raw ATP luminescence, replicate 2	call
ND-15 (GeneID 33179)	DRSC00311	66767	62680	inactive
CG17715 (GeneID 3355129)	DRSC11950	69803	68783	inactive
DAAM (GeneID 31075)	DRSC18479	1.13e5	1.48e5	inactive
metro (GeneID 36176)	DRSC06341	84923	57283	inactive
ACOX1 (GeneID 37028)	DRSC05941	55097	65187	inactive
CG31525 (GeneID 318782)	DRSC12004	58097	64483	inactive
CG10907 (GeneID 39331)	DRSC09804	91703	72617	inactive
ZnT33D (GeneID 326167)	DRSC02591	62823	64683	inactive
CG11670 (GeneID 41608)	DRSC14342	77820	70000	inactive
Calr (GeneID 41166)	DRSC16614	54883	51027	inactive
CG14511 (GeneID 43445)	DRSC14863	28350	28460	inactive
CG14315 (GeneID 42164)	DRSC14794	44120	55810	inactive
clt (GeneID 117300)	DRSC04621	62063	51820	inactive
CG13365 (GeneID 31005)	DRSC17899	72420	40030	inactive
CG42458 (GeneID 2768945)	DRSC10335	23737	25603	inactive
SLO2 (GeneID 5740325)	DRSC06212	20187	18180	inactive
SLO2 (GeneID 5740325)	DRSC06214	36627	79033	inactive
SLO2 (GeneID 5740325)	DRSC06216	50187	79033	inactive
SLO2 (GeneID 5740325)	DRSC06218	45543	67940	inactive
SLO2 (GeneID 5740325)	DRSC06219	24973	28310	inactive
CG43737 (GeneID 32448)	DRSC19609	3.24e5	2.82e5	inactive
CG14459 (GeneID 40476)	DRSC11719	21793	23600	inactive
CG1137 (GeneID 40803)	DRSC12529	63437	64907	inactive
CG42365 (GeneID 37469)	DRSC04266	66390	68070	inactive
CG1979 (GeneID 40837)	DRSC12495	39020	22017	inactive
CG1722 (GeneID 33101)	DRSC20547	3.17e5	3.34e5	inactive
cup (GeneID 33934)	DRSC03516	1.28e5	78670	inactive
Mvb12 (GeneID 32791)	DRSC20027	3.13e5	3.05e5	inactive
CG32638 (GeneID 318133)	DRSC18968	2.27e5	2.54e5	inactive
CG6628 (GeneID 39183)	DRSC10679	70870	68413	inactive
CG13675 (GeneID 38907)	DRSC08908	89950	1.15e5	inactive
CG13675 (GeneID 38907)	DRSC10034	32423	36063	inactive
CG2291 (GeneID 35804)	DRSC06836	36810	73393	inactive
Mrp4 (GeneID 41387)	DRSC14931	62270	58840	inactive
CG7906 (GeneID 39575)	DRSC10928	24663	23533	inactive
CG7882 (GeneID 35520)	DRSC04899	61163	46307	inactive
CG2906 (GeneID 35753)	DRSC06841	45230	74380	inactive
ppk7 (GeneID 33886)	DRSC03236	24427	20623	inactive
TP53INP (GeneID 38543)	DRSC08178	39987	47067	inactive
cmb (GeneID 39513)	DRSC09790	71733	64977	inactive
CG13135 (GeneID 34345)	DRSC02232	36737	76253	inactive
Lmx1a (GeneID 39406)	DRSC09726	60823	57177	inactive
Lmx1a (GeneID 39406)	DRSC10275	31003	30633	inactive
CG31091 (GeneID 318591)	DRSC15933	71390	47860	inactive
xmas (GeneID 44271)	DRSC21306	1.40e5	2.01e5	inactive
CG8097 (GeneID 32495)	DRSC20079	3.93e5	3.16e5	inactive

Limited to “raw ATP luminescence, replicate 2” (8 entries from above):
DAAM (GeneID 31075) [DRSC18479] = 1.48e5
metro (GeneID 36176) [DRSC06341] = 57283
ACOX1 (GeneID 37028) [DRSC05941] = 65187
CG31525 (GeneID 318782) [DRSC12004] = 64483
CG10907 (GeneID 39331) [DRSC09804] = 72617
ZnT33D (GeneID 326167) [DRSC02591] = 64683
CG11670 (GeneID 41608) [DRSC14342] = 70000
Calr (GeneID 41166) [DRSC16614] = 51027

Continued:
target gene	dsRNA	raw ATP luminescence, replicate 1	raw ATP luminescence, replicate 2	call
mtTFB2 (GeneID 41228)	DRSC15519	45603	60740	inactive
CG18764 (GeneID 59239)	DRSC15391	49653	59380	inactive
CG12784 (GeneID 41903)	DRSC14539	62970	56300	inactive
CG10598 (GeneID 32713)	DRSC19358	2.08e5	2.31e5	inactive
Dis3l2 (GeneID 38034)	DRSC08496	46130	47803	inactive
bbc (GeneID 36496)	DRSC06958	54707	49830	inactive
CG15499 (retired record) (GeneID 42546)	DRSC15041	50190	55780	inactive
Caf1-105 (GeneID 36107)	DRSC06209	51443	84213	inactive
CG43658 (GeneID 32729)	DRSC20111	2.45e5	2.72e5	inactive
dib (GeneID 45282)	DRSC08711	42857	45830	inactive
mbt (GeneID 32631)	DRSC20348	1.99e5	1.59e5	inactive
moody (GeneID 31168)	DRSC18515	69540	57140	inactive
CG11695 (GeneID 32106)	DRSC19416	2.34e5	2.12e5	inactive
glob3 (GeneID 40726)	DRSC12261	55880	51310	inactive
CG13375 (GeneID 30976)	DRSC18621	54050	41670	inactive
CG14253 (GeneID 43243)	DRSC14748	74590	43270	inactive
Tsp42Eq (GeneID 35628)	DRSC06180	41260	73580	inactive
msb1l (GeneID 35254)	DRSC03572	90940	71423	inactive
CG8135 + BBIP1	DRSC12739	58523	64897	inactive
CG8135 + BBIP1	DRSC16384	49443	49660	inactive
CG32017 (GeneID 317823)	DRSC17183	1.72e5	1.68e5	inactive
CG5282 (GeneID 40256)	DRSC11775	24647	26007	inactive
Sps2 (GeneID 34397)	DRSC03441	44757	76920	inactive
CG34376 (GeneID 42638)	DRSC14695	48260	47570	inactive
CG34376 (GeneID 42638)	DRSC14696	43150	55080	inactive
CG34376 (GeneID 42638)	DRSC14701	49070	51200	inactive
CG34051 (GeneID 3885660)	DRSC01739	89070	52217	inactive
TwdlC (GeneID 43245)	DRSC14749	47100	36650	inactive
Chi (GeneID 37837)	DRSC04602	58030	55307	inactive
Gr58c (GeneID 37501)	DRSC04136	65087	61803	inactive
CG4000 (GeneID 42451)	DRSC15535	60350	80140	inactive
sowah (GeneID 39438)	DRSC09186	1.58e5	95583	inactive
sowah (GeneID 39438)	DRSC09758	32120	35033	inactive
Sgt1 (GeneID 40982)	DRSC16519	56997	48020	inactive
CG42809 + CG42810	DRSC02532	52147	76667	inactive
CG42809 + CG42810	DRSC02533	76010	71247	inactive
CG5445 (GeneID 32722)	DRSC19943	1.11e5	1.25e5	inactive
CG13737 (GeneID 39531)	DRSC10064	61483	44737	inactive
gry (GeneID 38391)	DRSC08028	1.34e5	1.55e5	inactive
gry (GeneID 38391)	DRSC08518	39863	37050	inactive
Dyrk2 (GeneID 34831)	DRSC03610	73223	73813	inactive
Tim17b1 (GeneID 40635)	DRSC12179	61323	67897	inactive
CG7300 (GeneID 34472)	DRSC03044	90860	74437	inactive
MCU (GeneID 59223)	DRSC10339	84530	82223	inactive
Tim17a1 (GeneID 41500)	DRSC14184	58610	46170	inactive
CG3257 (GeneID 37862)	DRSC04351	66240	55923	inactive
CG3407 (GeneID 33606)	DRSC00603	1.01e5	73513	inactive
CG12831 (GeneID 35631)	DRSC06179	48373	60873	inactive
CG2841 (GeneID 44529)	DRSC17699	2.35e5	2.36e5	inactive
CG2841 (GeneID 44529)	DRSC18824	42170	50530	inactive
dati (GeneID 43789)	DRSC17153	55770	51790	inactive
CG11723 (GeneID 33388)	DRSC00324	98613	82900	inactive
sxc (GeneID 35486)	DRSC04911	62883	69053	inactive
side-VI (GeneID 4379854)	DRSC12828	73350	61623	inactive
side-VI (GeneID 4379854)	DRSC12830	69903	43533	inactive
side-VI (GeneID 4379854)	DRSC14920	45900	52893	inactive
side-VI (GeneID 4379854)	DRSC15624	36197	37377	inactive
SecS (GeneID 40681)	DRSC12222	58753	63733	inactive
Dcp-1 (GeneID 37729)	DRSC04609	80707	78787	inactive
Spag1 (GeneID 43239)	DRSC15331	57110	43050	inactive
Sar1 (GeneID 42615)	DRSC17049	52813	54350	inactive
